Test [1] has as its target GBD-fkh1(Δ50–202) (S. cerevisiae) (UniProt P40466). As to the kind of experiment: two-hybrid; directed assays in strain PJ69-4A: GBD-Fkh1 forms as bait, GAD fusions as prey; reporter genes HIS3 and ADE2, growth on media lacking histidine or both adenine and histidine, compared with the GAD alone. On the technique in general: Reporter assays use an easily measured gene product as a stand-in for the process of interest.

Chains of the proteins cited; added tags and fusions are not shown. Residues count along the entry.
UniProt P40562, residues 762-993: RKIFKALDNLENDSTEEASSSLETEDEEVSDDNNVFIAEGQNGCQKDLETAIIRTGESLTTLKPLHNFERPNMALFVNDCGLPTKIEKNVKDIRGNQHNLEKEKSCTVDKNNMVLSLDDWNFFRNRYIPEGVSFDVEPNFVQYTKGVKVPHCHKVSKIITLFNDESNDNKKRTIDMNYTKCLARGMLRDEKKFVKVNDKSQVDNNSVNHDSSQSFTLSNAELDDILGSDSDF

Test [2] deals with GBD-Mph1 lacking amino acids 751–810 (S. cerevisiae) (UniProt P40562). As to the kind of experiment: two-hybrid; directed assays in strain PJ69-4A: GBD-Mph1 regions and mutants as bait, Fkh1-FHA or known Mph1 partners as prey; growth on selective media compared with the GAD alone.

Consider two molecules from publication PMC4892509, “Binding of the Fkh1 Forkhead Associated Domain to a Phosphopeptide within the Mph1 DNA Helicase Regulates Mating-Type Switching in Budding Yeast” (PLoS Genetics, 2016).

Results are given in words; binding and its absence hold for the method and conditions named. For some assays here: Sequences can lack the tags named with a protein.

Take “GAD-Mph1-Ct (amino acids 762–993) (from UniProt P40562 762-993) (domain or fragment)”: the binding entry in test [1] is given as “no binding”.

B1: GAD fusion of Fkh1-FHA (amino acids 50–202) (domain or fragment, UniProt P40466 50-202)
chain: LSIAREVNAYAKIAGCDWTYYVQKLEVTIGRNTDSLNLNAVPGTVVKKNIDIDLGPAKIVSRKHAAIRFNLESGSWELQIFGRNGAKVNFRRIPTGPDSPPTVLQSGCIIDIGGVQMIFILPEQETIISDYCLNHLMPKLLSTYGTNGNNNPL
B1: the binding entry in test [2] is reported as “no binding”.
